{
  "source": "paper PMC11421376",
  "binders": {"B1": {"name": "eGFP-Rab3a wild type, ectopically expressed (protein, UniProt P20336 1-220)", "chain": "MASATDSRYGQKESSDQNFDYMFKILIIGNSSVGKTSFLFRYADDSFTPAFVSTVGIDFKVKTIYRNDKRIKLQIWDTAGQERYRTITTAYYRGAMGFILMYDITNEESFNAVQDWSTQIKTYSWDNAQVLLVGNKCDMEDERVVSSERGRQLADHLGFEFFEASAKDNINVKQTFERLVDVICEKMSESLDTADPAVTGAKQGPQLSDQQVPPHQDCAC"}},
  "experiment_in_all_cases": "pull-down; co-precipitation from infected HeLa cells (90 min infection): SBP-tagged translocated EspH precipitated from ~5 mg lysate with streptavidin agarose beads, 3 hrs at 4°C; lysis buffer 50 mM Tris pH 7.4, 150 mM NaCl, 0.5% NP-40; Rabs detected by immunoblot with anti-Rab or anti-tag antibodies; also done in Control-KO and Rab8a-KO1 HeLa cells",
  "key": {"[1]": {"target": "EspH K41A with C-terminal 6×His-SBP, translocated from EPEC-ΔespH/pEspH_(K41A) (enteropathogenic E. coli (EPEC))"}, "[2]": {"target": "EspH K106R with C-terminal 6×His-SBP, translocated from EPEC-ΔespH/pEspH_(K106R) (enteropathogenic E. coli (EPEC))"}, "[3]": {"target": "EspH E37A with C-terminal 6×His-SBP, translocated from EPEC-ΔespH/pEspH_(E37A) (enteropathogenic E. coli (EPEC))"}},
  "note": "No constants are given. Whether binding was seen depends on the method and setting. In cells and extracts the contact can be indirect. For part of these data: Binding calls can cover weak binding; strength is not graded here. Sequences can lack the tags named with a protein.",
  "data": [
    {"binder": "B1", "values": [
      {"measurement": "binding", "setting": "[1]", "result": "no binding"},
      {"measurement": "binding", "setting": "[2]", "result": "binds"},
      {"measurement": "binding", "setting": "[3]", "result": "no binding"}
    ]}
  ]
}
